In publication PMC11435022 (Pathogens, 2024):
Like-named read-outs stand apart in the source and are kept apart here.

What was measured:
[1] = system: MRSA T144 and E. coli B2; conditions: 10-fold MIC, 12 h, stationary-phase cells in M9 medium; both strains; three independent experiments
[2] = peptide 100 μg/mL, average of three scans
[3] = system: E. coli B2; conditions: DiSC3(5) 0.5 µM, peptide 0–128 μg/mL, 37 °C, 1 h
[4] = system: MRSA T144; conditions: DiSC3(5) 0.5 µM, peptide 0–128 μg/mL, 37 °C, 1 h
[5] = system: E. coli B2; conditions: DCFH-DA 10 µM, peptide 0, 8, 64, 128 μg/mL, 1 h
[6] = system: MRSA T144; conditions: DCFH-DA 10 µM, peptide 0, 8, 64, 128 μg/mL, 1 h
[7] = system: MRSA T144; conditions: for bacterial growth at 50% of the MIC, result in words: later growth climbs sharply, approaching the drug-free group; for bacterial growth at MIC, result in words: peptide at MIC, within 12 h
[8] = system: E. coli B2; conditions: for bacterial growth at sub-MICs, result in words: during 12 h; for bacterial growth at MIC, result in words: peptide at MIC, within 12 h

Compound	Beta content (CD) ([2]; 50% TFEA)	Helix content (CD) ([2]; 50% TFEA)	Random content (CD) ([2]; 50% TFEA)	Turn content (CD) ([2]; 50% TFEA)	Beta content (CD) ([2]; LPS 50 µM)	Helix content (CD) ([2]; LPS 50 µM)	Random content (CD) ([2]; LPS 50 µM)	Turn content (CD) ([2]; LPS 50 µM)	Beta content (CD) ([2]; PBS 10 mM pH 7.4)	Helix content (CD) ([2]; PBS 10 mM pH 7.4)	Random content (CD) ([2]; PBS 10 mM pH 7.4)	Turn content (CD) ([2]; PBS 10 mM pH 7.4)	Beta content (CD) ([2]; SDS 50 mM)	Helix content (CD) ([2]; SDS 50 mM)	Random content (CD) ([2]; SDS 50 mM)	Turn content (CD) ([2]; SDS 50 mM)	membrane potential (DiSC3(5) fluorescence), result in words [3]	membrane potential (DiSC3(5) fluorescence), result in words [4]	ROS level (DCFH-DA fluorescence), result in words [5]	ROS level (DCFH-DA fluorescence), result in words [6]	other results
CC(C)C[C@H](NC(=O)[C@H](Cc1c[nH]c2ccccc12)NC(=O)[C@@H](NC(=O)[C@H](CC(C)C)NC(=O)[C@@H]1CCCN1C(=O)[C@@H](N)Cc1ccccc1)[C@@H](C)O)C(=O)N[C@@H](CCCCN)C(=O)N[C@@H](Cc1c[nH]c2ccccc12)C(=O)N[C@@H](Cc1c[nH]c2ccccc12)C(=O)N[C@@H](CCCCN)C(=O)N[C@@H](Cc1c[nH]c2ccccc12)C(=O)N[C@@H](CCCCN)C(=O)N[C@@H](CCCCN)C(N)=O [FK13]	0	67	33	0	35.2	16.4	36.8	11.6	51.1	1.5	42.1	5.3	0	76.9	23.1	0	increased fluorescence intensity in a concentration-dependent manner	increased fluorescence intensity in a concentration-dependent manner	induced ROS generation in a dose-dependent manner	induced ROS generation in a dose-dependent manner	CFUs reduction [1]: 2–5 log10; bacterial growth at 50% of the MIC, result in words [7]: completely restricted within the time frame of 0 to 4 h; bacterial growth at MIC, result in words [7]: almost no progress in bacterial growth; bacterial growth at sub-MICs, result in words [8]: completely restricted; bacterial growth at MIC, result in words [8]: almost no progress in bacterial growth
CC[C@H](C)[C@H](NC(=O)[C@H](CCSC)NC(=O)[C@H](CCCCN)NC(=O)[C@H](C)NC(=O)[C@H](CCSC)NC(=O)[C@H](Cc1ccc(O)cc1)NC(=O)[C@H](CCCNC(=N)N)NC(=O)[C@@H](NC(=O)[C@H](CC(C)C)NC(=O)[C@H](CCCNC(=N)N)NC(=O)[C@H](CC(C)C)NC(=O)[C@@H](N)Cc1ccc(O)cc1)[C@@H](C)CC)C(N)=O [YI12]	0	20.6	30.5	48.9	0	16.7	45	38.3	21.3	3.6	56	19.1	0	26.4	40.4	33.2	increased fluorescence intensity in a concentration-dependent manner	increased fluorescence intensity in a concentration-dependent manner	induced ROS generation in a dose-dependent manner	induced ROS generation in a dose-dependent manner	bacterial growth at 50% of the MIC, result in words [7]: completely restricted within the time frame of 0 to 4 h; bacterial growth at MIC, result in words [7]: almost no progress in bacterial growth; bacterial growth at sub-MICs, result in words [8]: completely restricted; bacterial growth at MIC, result in words [8]: almost no progress in bacterial growth
